# Among all 310,000 compounds or so, about 17,000 (5.5%) were called active. The inconclusive results got no clear call from the source; some entries with a clear call stand among them for comparison. Calls come from the whole dose curve; as a rule, active = well fitted inhibition curve with a large enough effect; inconclusive = small, poorly fitted or top-dose-only effect, or effect the other way; inactive = no such curve, though single readings can be large or run the other way. Potencies beside an inconclusive call are fits to weak or partial responses and may not hold up.
# By UniProt entry, the sequences of proteins in these tests, tags left out. Where a name states a change or a piece, a line headed by the entry shows the natural chain unless it says otherwise.
# UniProt P51450: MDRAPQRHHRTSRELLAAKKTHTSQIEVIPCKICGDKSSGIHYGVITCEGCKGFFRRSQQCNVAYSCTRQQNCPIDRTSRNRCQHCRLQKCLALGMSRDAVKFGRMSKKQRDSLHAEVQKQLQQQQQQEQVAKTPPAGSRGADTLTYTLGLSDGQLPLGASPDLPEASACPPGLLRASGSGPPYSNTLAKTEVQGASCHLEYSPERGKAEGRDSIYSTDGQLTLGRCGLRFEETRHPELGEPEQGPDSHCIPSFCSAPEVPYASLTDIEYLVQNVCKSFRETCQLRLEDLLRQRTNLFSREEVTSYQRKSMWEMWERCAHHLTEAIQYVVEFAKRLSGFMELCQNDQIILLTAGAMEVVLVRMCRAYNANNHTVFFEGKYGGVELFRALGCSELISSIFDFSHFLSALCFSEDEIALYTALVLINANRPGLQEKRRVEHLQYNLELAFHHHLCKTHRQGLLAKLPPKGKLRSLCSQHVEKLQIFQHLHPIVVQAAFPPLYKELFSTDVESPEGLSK
# Molecular target: Nuclear receptor ROR-gamma (Mus musculus) (UniProt P51450)
# Test: qHTS for inhibitors of ROR gamma transcriptional activity; note: nearly all actives have a fitted effect of over 60% in size
# Settings: Drosophila S2 Gal4-RORgamma UAS-luciferase reporter, 20 h; activity change, negative = inhibition: at 53.6 µM (top of the series)
# Method in brief: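 Using a luciferase readout, inhibitors were identified by reduced reporter activity in Drosophila cells coexpressing a copper-inducible Gal4–ROR gamma fusion and UAS-driven Photinus luciferase, incubated 20 hr after 700 uM copper sulfate.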
# % is set by controls: 0 for no effect and ±100 for the full control effect; potency is the fitted concentration of half-maximal effect.
SMILES,Potency,"activity change, negative = inhibition"
CCOC(=O)Nc1ccc(Oc2ccccc2)cc1,"inconclusive: 35.5 µM [activator, single point]",–
CCCC(=O)Nc1nc2ccc(S(=O)(=O)N3CCCCC3)cc2s1,–,inactive: 22.8%
COc1cc(NC(=O)c2cc3ccccc3o2)ccc1NC(=O)c1ccco1,–,inactive: -19.5%
O=C(CSCC(=O)Nc1ccccc1)N/N=C/c1c(O)ccc2ccccc12,active: 1 µM,–
CC1CCC(=O)N(CCSc2ccccc2)CC1 (centres undefined),–,inactive: -32.9%
COC(=O)c1ccc(OCC(O)Cn2nnc3ccccc32)cc1 (centres undefined),"inconclusive: 1.26 µM [activator, full curve, poor fit]",–
COc1ccccc1-n1cnnc1SCC(=O)Nc1cc(C(C)(C)C)nn1-c1ccccc1,"inconclusive: 35.5 µM [activator, single point]",–
Cc1ccc(O)c(NC(=S)NC(=O)/C=C/c2ccccc2)c1,–,inactive: -14.7%
CCc1nnc(NC(=O)CN2CCN(c3nc(-c4ccccc4)cs3)CC2)s1,active: 11.2 µM,–
Cc1ccc(-c2nnn(CC(=O)N(c3ccc(F)cc3)C(C(=O)NC3CCCC3)c3ccco3)n2)o1 (centres undefined),–,inactive: 19.6%
CCOC(=O)C1=C(C)C2C3C(=O)N(c4ccccc4C)C(=O)C3C1(C)C1C(=O)N(c3ccccc3C)C(=O)C21 (centres undefined),"inconclusive: 35.5 µM [inhibitor, single point]",–
COC(=O)c1cn(NC(=O)c2cc(OC)cc(OC)c2)c(=O)c2ccccc12,"inconclusive: 2.51 µM [inhibitor, partial curve, poor fit]",–
COc1ccc2c(C)cc(SCn3nnc4ccccc4c3=O)nc2c1,"inconclusive: 12.6 µM [activator, partial curve]",–
Cc1ccc(NNC(=O)c2ccc(Cl)cc2)nn1,"inconclusive: 8.91 µM [inhibitor, partial curve, poor fit]",–
COc1ccc(OC)c(S(=O)(=O)NCCC2=CCCCC2)c1,"inconclusive: 3.55 µM [activator, partial curve, poor fit]",–
CCNc1nc(NCC)nc(C(=O)NN)n1,"inconclusive: 0.398 µM [inhibitor, full curve, poor fit]",–
COc1ccccc1C(=O)OCc1ccc2sc(C)nc2c1,–,inactive: 24.8%
Cc1cc(-c2ccccc2)n(-c2ccc(C(=O)N3CCN(c4ncccn4)CC3)cc2)n1,"inconclusive: 0.282 µM [inhibitor, single point]",–
CSc1ccc(CN2CCC(n3nccc3NC(=O)CCCc3ccccc3)CC2)cc1,–,inactive: 37.2%
CCOC(=O)[C@@H]1[C@H]2COc3ccc(Br)cc3[C@H]2N2C(=O)N(c3cccc(Cl)c3)C(=O)[C@]12C,"inconclusive: 8.91 µM [inhibitor, partial curve]",–
COc1ccc(COc2cc(-c3cccc(OC)c3)nc3ccc(NC(=O)c4cccnc4)cc23)cc1,"inconclusive: 11.2 µM [activator, partial curve]",–
CC1=CC(c2ccc(Cl)cc2)n2nc(N3C(=O)CCC3=O)nc2N1 (centres undefined),–,inactive: -0.034%
C=CCO/N=C(\C)c1c(O)c(C)c(-c2ccccc2)n(-c2ccccc2)c1=O,"inconclusive: 35.5 µM [activator, single point]",–
CSc1ccccc1C(=O)C1CCCN(C(=O)c2cc(C(C)C)no2)C1 (centres undefined),"inconclusive: 22.4 µM [inhibitor, single point]",–
CCNc1nc(-c2ccc(OC(F)F)cc2)c(C)s1,active: 11.2 µM,–

SMILES,Potency,"activity change, negative = inhibition"
CCN(Cc1ccccc1)S(=O)(=O)c1cc2[nH]c(=O)c(=O)[nH]c2cc1C,–,inactive: -24.2%
CCC(C)c1ccc(NC(=S)NCc2cccs2)cc1 (centres undefined),active: 7.08 µM,–
CN(C)CCN(C(=O)/C=C/c1cccs1)c1nc2c(F)cc(F)cc2s1,"inconclusive: 35.5 µM [inhibitor, partial curve, poor fit]",–
CCS(=O)(=O)c1ccc(C(=O)Nc2ccccc2)c(Cl)c1Cl,"inconclusive: 0.0045 µM [inhibitor, full curve, poor fit]",–
Cc1cccc(-c2noc(CCCC(=O)NC3CCCCC3)n2)c1,"inconclusive: 15.8 µM [activator, single point]",–
Oc1c(Br)cc(Br)cc1/C=N/Nc1ccc(Cl)nn1,"inconclusive: 12.6 µM [inhibitor, partial curve, poor fit]",–
CCOC(=O)Cc1csc(NC(=O)CN(C)S(=O)(=O)c2ccc3c(c2)CCC(=O)N3)n1,"inconclusive: 20 µM [activator, partial curve, poor fit]",–
COc1ccc(NC(=O)C2CCN(c3ncnc4c3nc3n4CCCCC3)CC2)c(OC)c1,–,inactive: 26.8%
O=C(CCC(=O)N1CCN(c2cccc(Cl)c2)CC1)N1CCN(c2ccccc2)CC1,"inconclusive: 11.2 µM [activator, single point]",–
O=[N+]([O-])c1cccc(/C([O-])=C(/C(=S)Nc2cccc3ccccc23)[n+]2ccccc2)c1,active: 10 µM,–
COc1ccccc1NC(=S)NNC(=O)c1c(Cl)c(C)nn1C,active: 1.58 µM,–
COc1cc([C@H](Cc2ccccc2)NC(C)=O)oc(=O)c1,"inconclusive: 35.5 µM [inhibitor, single point]",–
COc1ccc(Cn2c(C3CC3)nc3ccc(NC(C)=O)cc3c2=O)cc1,"inconclusive: 0.282 µM [activator, partial curve]",–
COc1cccc(/C=N/NC(=O)CNC(=O)c2cccs2)c1O,active: 3.16 µM,–
O=C(Cc1ccccc1)Nc1ccc(S(=O)(=O)N2CCOCC2)cc1,–,inactive: -7.22%
CCn1c(SCc2nc3ccccc3s2)nnc1-c1ccccc1,"inconclusive: 5.62 µM [activator, partial curve, poor fit]",–
N#Cc1c(NC(=S)NC(=O)c2ccccc2)sc2c1CCCC2,active: 6.31 µM,–
COC(=O)c1sc(NC(=S)NNC(=O)c2c(Br)c(C)nn2C)c(C(=O)OC)c1C,active: 6.31 µM,–
COc1ccc(-n2nc3c(c2NC(=O)C(C)Cl)CSC3)cc1 (centres undefined),–,inactive: 14.1%
NC(=O)C1CCN(C(=O)COc2ccc3c(c2)oc(=O)c2ccccc23)CC1,–,inactive: -22.4%
O=C(Cn1c(-c2cscn2)nc2ccccc21)Nc1ccc2ccccc2c1,"inconclusive: 6.31 µM [activator, single point]",–
CN(CC(=O)Nc1ccccc1Br)C(=O)c1ccc(-c2ccc(Cl)cc2)o1,"inconclusive: 35.5 µM [inhibitor, single point]",–
COc1ccc(Cl)cc1NC(=O)NCC1CCN(C(=O)OC(C)(C)C)CC1,–,inactive: -28.6%
COc1ccc(S(=O)(=O)n2oc(=O)cc2-c2ccccc2)cc1OC,–,inactive: 0.36%
CCOC(=O)c1ccc(NC(=O)C2CCN(C(=O)c3ccc(OC)c(OC)c3)CC2)cc1,"inconclusive: 31.6 µM [activator, single point]",–

# Looked up above:
# In activity change, negative = inhibition, COc1ccc(-n2nc3c(c2NC(=O)C(C)Cl)CSC3)cc1 (centres undefined) has the entry inactive: 14.1%
# In Potency, O=C(Cn1c(-c2cscn2)nc2ccccc21)Nc1ccc2ccccc2c1 has the entry inconclusive: 6.31 µM [activator, single point]
# In Potency, CN(C)CCN(C(=O)/C=C/c1cccs1)c1nc2c(F)cc(F)cc2s1 has the entry inconclusive: 35.5 µM [inhibitor, partial curve, poor fit]

# A different layout for two compounds above:
SMILES	Potency	activity change, negative = inhibition
COc1ccc(-n2nc3c(c2NC(=O)C(C)Cl)CSC3)cc1 (centres undefined)	–	inactive: 14.1%
CN(CC(=O)Nc1ccccc1Br)C(=O)c1ccc(-c2ccc(Cl)cc2)o1	inconclusive: 35.5 µM [inhibitor, single point]	–

# The list continues:

SMILES,Potency,"activity change, negative = inhibition"
Cc1ccc(NC(=S)NC2CCSc3ccccc32)cc1C (centres undefined),active: 3.55 µM,–
CC(C)(C)C(=O)CNS(=O)(=O)c1ccc(S(=O)(=O)NC2CC2)cc1,–,inactive: 34.4% [at 1.91 µM]
CC(=O)c1c(C)n(CCO)c2ccc(O)cc12,–,inactive: 1.85%
CCOc1ccc(CC(=O)N/N=C/c2sccc2C)cc1,–,inactive: 1.61%
O=C(COc1cc(=O)n2c(n1)SCCC2)c1ccccc1,–,inactive: 40.4%
CCOc1cc(CNc2ccc(N(C)C)cc2)cc(Br)c1OCC(=O)NC(C)(C)C,active: 10 µM,–
CCc1cccc(OCC(O)Cn2c(N3CCCCC3)nc3c2c(=O)[nH]c(=O)n3C)c1 (centres undefined),"inconclusive: 11.2 µM [activator, partial curve, poor fit]",–
Cc1ccc(C(=O)Nc2ncccc2S(=O)(=O)c2ccccc2)cc1,–,inactive: 22.1%
CCOc1ccc(CN2CCNC(=O)C2CC(=O)NCCCC2CCCC2)cc1 (centres undefined),–,inactive: 3.34%
CCOC(=O)c1ccccc1NC(=O)COC(=O)CCC(=O)N1CCOCC1,–,inactive: 2.27%
CCOC(=O)C1(Cc2cccc(OC)c2)CCN(Cc2ccccc2)CC1,–,inactive: -1.45%
CC(=O)OC1C(=O)[C@@]2(C)C(O)CC3OC[C@]3(OC(C)=O)C2C(OC(=O)c2ccccc2)[C@]2(O)CC(OC(=O)C(O)C(NC(=O)c3ccccc3)c3ccccc3)C(C)=C1C2(C)C (some centres undefined),"inconclusive: 8.91 µM [activator, partial curve]",–
Cc1cccc(N(CC(=O)N/N=C/c2cc([N+](=O)[O-])ccc2Cl)S(C)(=O)=O)c1C,"inconclusive: 6.31 µM [activator, single point]",–
CCOc1ccc(/C=N/NC(=S)NC2CC3C=CC2C3)cc1 (centres undefined),active: 1 µM,–
CCOc1cc(NC(=S)NCC2CCCO2)c(OCC)cc1NC(=O)c1ccccc1F (centres undefined),active: 3.16 µM,–
S=C(Nc1ccccc1)N1CCn2cccc2C1c1cccnc1 (centres undefined),"inconclusive: 8.91 µM [activator, single point]",–
CCOC(=O)c1ccc(N2CCN(C(=O)c3ccccc3)CC2)c(NC(=O)c2ccco2)c1,"inconclusive: 0.631 µM [activator, full curve]",–
CN1CCC2(CC1)N=C(c1ccc(F)cc1)C(=S)N2C(=O)c1ccccc1,"inconclusive: 17.8 µM [inhibitor, single point]",–
O=c1c(O)c(-c2cccs2)oc2ccc(Cl)cc12,active: 11.2 µM,–
C/C(=N\OCc1cccc(C(=O)O)c1)c1ccc(Cl)cc1,–,inactive: -35.9%
COC(=O)c1ccccc1NC(=O)c1nc2nc(C)cc(C)n2n1,–,inactive: -2.51%
CCCCCCOC(=O)C[N+](C)(C)CCOC1CC2CCC1(C)C2(C)C (centres undefined),"inconclusive: 0.794 µM [inhibitor, single point]",–
CC(=O)N1CCN(c2ccc(Oc3ncnc4sccc34)cc2)CC1,–,inactive: 14.3%
O=c1[nH]c2cc3c(cc2cc1CN(CCc1ccccc1)Cc1nnnn1C1CCCC1)OCCO3,–,inactive: 4.42% [at 10 µM]

# Reference: PubChem BioAssay AID2551 (National Center for Advancing Translational Sciences (NCATS), 2010)
